Measurements from patent US11369592B2 (priority 2020, dated 2022).
At least one compound was matched to its structure with a doubt left.

Key:
SARS-CoV-2 [1] = assay: SARS-CoV-2 apical replication in MucilAir-Pool (genome copies ORF1b-nsp14, Taqman RT-PCR); type: cell-based; conditions: remdesivir 5 microM, positive control
[2] = tested on: MucilAir™-Pool human airway epithelium infected with SARS-CoV-2; assay: Tissue integrity (TEER) upon SARS-CoV-2 infection in MucilAir-Pool, Phase 2; type: cell-based; conditions: remdesivir treated; 48 and 72 hours
SARS-CoV-2 [3] = assay: SARS-CoV-2 apical infectious titre in MucilAir-Pool (TCID50); conditions: for reduction of SARS-CoV-2 titre at apical side relative to vehicle control: remdesivir 5 μM

With `CCC(CC)COC(=O)[C@H](C)N[P@](=O)(OC[C@H]1O[C@@](C#N)(c2ccc3c(N)ncnn23)[C@H](O)[C@@H]1O)Oc1ccccc1` [remdesivir, reference compound] the “inhibition of viral replication compared with celgosivir” value (SARS-CoV-2 [1]) was “more pronounced inhibition of viral replication”, the “TEER of infected cultures” value [2] was “increase of TEER values” and the “reducing effect on SARS-CoV-2 titre” value (SARS-CoV-2 [3]; 72 hours, concentration not given) was 1.1 log. For the same compound, the “reduction of SARS-CoV-2 titre at apical side relative to vehicle control” value (SARS-CoV-2 [3]; 48 hours post-infection) was 1.5 log10 and the “reduction of SARS-CoV-2 titre at apical side relative to vehicle control” value (SARS-CoV-2 [3]; 72 hours post-infection) was 0.9 log10.
